Results on 40 compounds are retold here after PubChem BioAssay (NCATS).

The list shows a part of the results. The main result of the screen is listed elsewhere. These columns were measured beside it and carry no call. Compounds called inactive in the main read-out are mostly missing here. Words in brackets tell the shape of the fitted curve; partial curves, single points and poor fits give uncertain potencies.

The nature of this experiment: A High-Content qHTS Against Drug Library for the Identification of Small Molecules that Inhibit DYT1 Early Onset Primary Dystonia-Associated Cell Pathology (AID 1645839). The conditions noted are these: HEK293 Flp-In EGFP-delE TorsinA, punctate imaging, 48 h; measured here: cell count cytotoxicity. From the text: Nicole Calakos M.D., Ph.D.
Duke University School of Medicine, Durham, NC
In DYT1 dystonia due to delGAG in the TOR1A gene, there is a robust and widely replicated finding of TorsinA protein mislocalization caused when the mutant protein is in excess of the wildtype protein (1-7). Stable HEK293 cell lines were created that replicate this phenomenon. Inducible expression of an EGFP-hu delE TorsinA encoding cDNA causes pronounced punctate cellular distribution. […] This phenotypic difference in EGFP-huTorsinA fusion protein distribution serves as an indicator of cell pathology. […] RNAi screen results with the assay were validated in DYT1 patient cell phenotypes, intersected with a known dystonia gene, and led to discovery of new human genetic dystonia associations.
The bioassay described herein is a high-content image screen with two readouts. The "%pathology" readout is the primary qHTS data channel, while the "cellcount" is the counterscreen qHTS channel. Desired active compounds are those that show inhibition in %pathology channel but no activity or minimal toxicity in cellcount readout.
1. Kustedjo, K., Bracey, M.H., and Cravatt, B.F. (2000). […] J. Biol. Chem. 275, 27933 - 27939.
2. Bragg, D.C., Kaufman, C.A., Kock, N., and Breakefield, X.O. (2004). Inhibition of N-linked glycosylation prevents inclusion formation by the dystonia-related mutant form of torsinA. Mol. Cell. Neurosci. 27, 417 - 426.
3. Gonzalez-Alegre, P., and Paulson, H.L. (2004). Aberrant Cellular Behavior of Mutant TorsinA Implicates Nuclear Envelope Dysfunction in DYT1 Dystonia. J. Neurosci. 24, 2593 - 2601.
4. Goodchild, R.E., and Dauer, W.T. (2004). Mislocalization to the nuclear envelope: an effect of the dystonia-causing torsinA mutation. Proc. Natl. Acad. Sci. U. S. A. 101, 847 - 852.
5. Kock, N., Allchorne, A.J., Sena-Esteves, M., Woolf, C.J., and Breakefield, X.O. (2006). RNAi blocks DYT1 mutant torsinA inclusions in neurons. Neurosci. Lett. 395, 201 - 205.
6. Hewett, J.W., Nery, F.C., Niland, B., Ge, P., Tan, P., Hadwiger, P., Tannous, B.A., Sah, D.W.Y., and Breakefield, X.O. (2008). siRNA knock-down of mutant torsinA restores processing through secretory pathway in DYT1 dystonia cells. Hum. Mol. Genet. 17, 1436 - 1445.
7. Calakos, N., Patel, V.D., Gottron, M., Wang, G., Tran-Viet, K.N., Brewington, D., Beyer, J.L., Steffens, D.C., Krishnan, R.R., and Zuchner, S. (2010). Functional evidence implicating a novel TOR1A mutation in idiopathic, late-onset focal dystonia. J. Med. Genet. 47, 646 - 650.
8. Rittiner* JE, Caffall* ZF, Hernandez-Martinez R, Sanderson SM, Pearson JL, Tsukayama KK, Liu AY, Xiao C, Tracy S, Shipman MK, Hickey P, Johnson J, Scott B, Stacy M, Saunders-Pullman R, Bressman S, Simonyan K, Sharma N, Ozelius LJ, Cirulli ET, Calakos N. Functional Genomic Analyses of Mendelian and Sporadic Disease Identify Impaired eIF2alpha Signaling as a Generalizable Mechanism for Dystonia. Neuron. 2016 Dec 21;92(6):1238-1251. doi: 10.1016/j.neuron.2016.11.012. Epub 2016 Dec 8. PMID: 27939583; PMCID: PMC5320521.
High-content, High-throughput Drug Screening Assay
The TorsinA mislocalization assay was modified from the previously published assay to accommodate compound testing in 1536 well format.1 Briefly, Flp-In T-REx 293 cells from Invitrogen in which a single copy of a cDNA is recombined into a specific genomic locus was used to create tetracycline-inducible expression of cDNA encoding either EGFP-hTOR1A (WT) or EGFP-delE hTOR1A (DYT1). WT and DYT1 cells were diluted to a concentration of 2 x 10^5 cells/mL in reduced serum media (DMEM High Glucose containing 1% tetracycline-tested FBS, 2 mM L-Glutamine, and 1% Penicillin/Streptomycin). 4 µl of WT cells and 4 µl of DTY1 cells were added to column 1 and columns 2-48, respectively, of a poly-D-lysine-coated, low base, black, clear bottom 1536 well plate (Corning, Corning, NY) using the BioRAPTR FRD Microfluidic Workstation (Beckman Coulter, Indianapolis, IN). The final cell number was 800 cells/well. […]
As usually defined, the AC50 is the midpoint of the concentration-response curve, whichever way the signal moves. High values mean activity only at high concentration, low ones activity at low concentration. Regarding `CN(C)CCCOc1nn(Cc2ccccc2)c2ccccc12`, the half-maximal activity concentration (AC50) is 11.2 µM [falling, partial curve, poor fit].
In the case of `Nc1ccc(O)c([N+](=O)[O-])c1`, the AC50 was 31.6 µM [falling, single point].
As to `CC1Cc2ccccc2N1NC(=O)c1ccc(Cl)c(S(N)(=O)=O)c1` (stereo not given), the AC50 was 7.94 µM [falling, partial curve, poor fit].
The result for `Oc1c(I)cc(Cl)c2cccnc12` reads 2.51 µM [falling, partial curve, poor fit]; that for `O=C(CCCCCCCCC#CI)Oc1ccccc1`, 2.82 µM [falling, single point].
In the case of `O=C1NC2CCCCN2C12CCN(CCCN1c3ccccc3CCc3ccc(Cl)cc31)CC2` (stereo not given), the AC50 is 2 µM [falling, full curve, poor fit].
For `CC(C)CCCC(C)N` (stereo not given) the value was 35.5 µM [rising, single point].
The result for `COc1cc(N)c(Cl)cc1C(=O)NC1CCN(CCCOc2ccc(F)cc2)CC1OC` (stereo not given) reads 7.08 µM [falling, partial curve]; that for `OCCN1CCN(CCCN2c3ccccc3Sc3ccc(Cl)cc32)CC1`, 0.355 µM [falling, full curve, poor fit]; that for `C[C@@H]1CCN(C(=O)[C@H](CCCN=C(N)N)NS(=O)(=O)c2cccc3c2NC[C@H](C)C3)[C@@H](C(=O)O)C1`, 7.08 µM [rising, partial curve, poor fit].
For `Nc1ccc(S(=O)(=O)Nc2ccccc2)cc1` the value was 15.8 µM [falling, single point]; for `OCc1c[nH]c2ccccc12`, 20 µM [falling, partial curve, poor fit]; for `C[C@H]1C[C@H]2[C@@H]3CCC4=CC(=O)C=C[C@]4(C)[C@H]3C(=O)C[C@]2(C)[C@@]1(O)C(=O)CO`, 35.5 µM [rising, single point].
As to `CN(C)CC/C=C1\c2ccccc2Sc2ccc(Cl)cc21`, the AC50 was 10 µM [falling, partial curve, poor fit].
For `O=C(NCCN1CCOCC1)c1ccc(Cl)cc1` the value was 28.2 µM [rising, partial curve, poor fit].
For `CC(S)C(=O)NCC(=O)O` (stereo not given) the value was 10 µM [rising, partial curve]; for `CCN(CC)CCNc1ccc(CO)c2sc3ccccc3c(=O)c12`, 5.62 µM [falling, partial curve, poor fit]; for `Clc1ccc(Nc2nnc(Cc3ccncc3)c3ccccc23)cc1`, 8.91 µM [falling, partial curve, poor fit].
Regarding `C[C@@]12C(=O)OC(=O)[C@]1(C)C1CCC2O1`, the AC50 is 3.98 µM [falling, full curve].
On to `Oc1c(Cl)cc(Cl)c(Cl)c1Cc1c(O)c(Cl)cc(Cl)c1Cl`, for which the AC50 is 3.16 µM [falling, partial curve, poor fit].
The result for `c1ccc2occc2c1` reads 7.94 µM [falling, partial curve, poor fit].
For `CN1CCC(=C2c3ccccc3CCc3sccc32)CC1` the value was 7.08 µM [falling, full curve]; for `N=C1N=C(N)c2cc3ccccc3cc21`, 31.6 µM [falling, partial curve, poor fit].
On to `CN[C@H]1CC[C@@H](c2ccc(Cl)c(Cl)c2)c2ccccc21`, for which the half-maximal activity concentration (AC50) was 7.08 µM [falling, partial curve, poor fit].
The result for `CC(C)OC(=O)c1cc(C(=O)OC(C)C)cc([N+](=O)[O-])c1` reads 35.5 µM [rising, partial curve, poor fit].
The result for `COc1cc2nc(N(C)CCCNC(=O)C3CCCO3)nc(N)c2cc1OC` (stereo not given) reads 35.5 µM [rising, single point]; that for `CCCCOc1ccc(CC(=O)NO)cc1`, 10 µM [falling, partial curve, poor fit]; that for `Oc1c(Cl)cc(Cl)cc1Sc1cc(Cl)cc(Cl)c1O`, 22.4 µM [falling, single point].
As for `CCCC(CCC)(C(=O)OCC)C(=O)OCC`, the AC50 was 35.5 µM [rising, single point].
For `Cc1cccc(N(C)C(=S)Oc2ccc3ccccc3c2)c1` the value was 35.5 µM [rising, single point]; for `CN1CCC(=C2c3ccccc3C=Cc3ccccc32)CC1`, 11.2 µM [falling, partial curve, poor fit]; for `CN(C)CCN(Cc1ccc(Cl)cc1)c1ccccn1`, 35.5 µM [falling, single point].
For `CCN(CC)CCOc1ccc2c(c1)C(=O)c1cc(OCCN(CC)CC)ccc1-2` the value was 1.41 µM [falling, partial curve, poor fit]; for `CC(Cc1ccccc1)(NC(=O)CN)c1ccccc1` (stereo not given), 11.2 µM [falling, partial curve, poor fit].
The result for `C#C[C@]1(O)CC[C@H]2[C@@H]3CCc4cc(O)ccc4[C@H]3CC[C@@]21C` reads 2.82 µM [falling, full curve].
As to `Cc1c(C)n(Cc2ccccc2)c2ccc(C(=O)OCCN(C)C)cc12`, the half-maximal activity concentration (AC50) was 7.94 µM [falling, partial curve, poor fit].
Take `O=C(CN1CCN(Cc2ccc3c(c2)OCO3)CC1)N1c2ccccc2Sc2ccccc21`: the AC50 was 8.91 µM [falling, partial curve].
The result for `COc1ccnc(CS(=O)c2nc3ccc(OC(F)F)cc3[nH]2)c1OC` (stereo not given) reads 35.5 µM [rising, single point]; that for `CN(C(=O)CN(CCO)CC(=O)N(C)C(C)(C)Cc1ccccc1)C(C)(C)Cc1ccccc1`, 10 µM [falling, partial curve, poor fit]; that for `NC(=O)Cc1cccc(C(=O)c2ccccc2)c1N`, 35.5 µM [rising, single point].
